Data: PubChem BioAssay AID2685 (National Center for Advancing Translational Sciences (NCATS), 2010)
In all, about 320,000 compounds went through this assay and about 2,100 (0.66%) were called active. The shares of active, inactive and inconclusive entries below differ from those in the screen. Calls come from the whole dose curve; as a rule, active = well fitted inhibition curve with a large enough effect in the signal ratio, with a control signal flat (not every such curve was filed as active); inconclusive = small, poorly fitted or top-dose-only effect, or effect the other way, or a change in a side signal; inactive = flat fitted curve, though single readings scatter; the % refers to the signal ratio. Where the call is inconclusive, the potency comes from a doubtful curve fit.

Assay: qHTS Assay for Lipid Storage Modulators in Drosophila S3 Cells
Conditions: BODIPY lipid droplet fluorescence, 18-24 h, cells fed with added oleic acid; lipid storage change, negative = inhibition: at 46.1 µM (top of the series) unless noted
Method in brief: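 Drosophila S3 cells loaded with oleic acid (400 uM, as added) and compounds at several concentrations; lipid droplets imaged by 488-nm laser-scanning cytometry, 500–530 nm intensity and object ratio to cell channel. Percent activity normalized to 20 uM Triacsin C.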
% is set by controls: 0 for no effect and ±100 for the full control effect; potency is the fitted concentration of half-maximal effect.

| SMILES | lipid storage change, negative = inhibition | Potency |
| --- | --- | --- |
| O=C(NCC(=O)N1CCN(C(=O)c2ccco2)CC1)c1ccccc1 | inconclusive: 14.9% |  |
| CCOC(=O)C(C)Sc1ncc(-c2ccc(Cl)cc2)cn1 (stereo not drawn) | inconclusive: 18.9% |  |
| CCC1=C(OC(=O)c2ccccc2)C(C)(C)C(c2ccccc2)OC1=O (stereo not drawn) | inconclusive: -4.45% |  |
| CCc1cc2c(CN3CCN(C)CC3)cc(=O)oc2cc1O |  | inconclusive: 1.64 µM [falling, partial curve, poor fit] |
| N/C(=N\N=C/c1ccc(Br)cc1)N/N=C\c1ccc(Br)cc1 | inconclusive: -44.6% |  |
| COc1ccc(CN2C(=O)C(CC(C)C)Nc3ncnc(N4CCN(c5ccccc5)CC4)c32)cc1 (stereo not drawn) | inconclusive: 22.4% |  |
| O=C(CCNS(=O)(=O)c1cccs1)N1CCN(c2ccc(F)cc2)CC1 | inconclusive: 267% |  |
| Cc1cccc(-c2noc(CCCC(=O)NC3CCCC3)n2)c1 |  | inconclusive: 0.231 µM [activator, full curve] |
| O=C(O)C(Nc1nc(C(F)(F)F)nc2ccccc12)c1ccccc1 (stereo not drawn) | inconclusive: 55.8% |  |
| CCOC(=O)N1CCN(C(=O)C2CCN(S(=O)(=O)c3ccc(OCC)cc3)CC2)CC1 | inconclusive: 64.9% |  |
| CCOc1cc(/C=C2\SC(=NC)N(C)C2=O)cc(Cl)c1OC(C)=O |  | inconclusive: 29.1 µM [activator, single point] |
| COc1ccc(S(=O)(=O)Cc2ccc(C(=O)N3CCN(c4ccccn4)CC3)o2)cc1 |  | inconclusive: 29.1 µM [activator, single point] |
| COc1ccc(-c2ccc(-c3noc(-c4ccccc4C)n3)c(OC)n2)cc1 |  | inconclusive: 3.26 µM [activator, full curve] |
| Cc1ccc(NC(=O)Cn2cccc2)cc1C | inconclusive: 22.4% |  |
| CCOC(=O)C=C1CCN(c2ncc(C(F)(F)F)cc2Cl)CC1 | inconclusive: -42.9% |  |
| O=C(N/N=C/c1ccc(OCc2ccccc2)cc1)c1ccncc1 | inconclusive: 5.18% [at 9.22 µM] |  |
| COc1ccc(NC(=O)CN2C(=O)NC(C)(c3ccc(C)cc3)C2=O)cn1 (stereo not drawn) | inconclusive: 2.06% |  |
| COc1ccccc1N(CC(=O)N/N=C/c1ccc(OCC(=O)NCc2ccco2)cc1)S(=O)(=O)c1ccc(C)cc1 |  | inconclusive: 23.1 µM [activator, single point] |
| O=C(N/N=C/c1ccco1)c1cccc(NC(=O)c2ccccc2Cl)c1 |  | inconclusive: 4.61 µM [activator, single point] |
| COc1ccc(S(=O)(=O)NCc2ccccc2)cc1 |  | inconclusive: 29.1 µM [falling, single point] |
| O=C(CN1CCN(S(=O)(=O)c2ccccc2)CC1)NCCc1ccccc1 | inactive |  |
| COc1cc(/C=N/n2c(COc3ccccc3)n[nH]c2=S)cc(Br)c1O | inconclusive: -1.33% |  |
| CCCCn1c(N)c(N(CC(C)C)C(=O)c2c(-c3ccccc3)noc2C)c(=O)[nH]c1=O | inconclusive: 3.24% |  |
| Cc1ccc(C(=O)Nc2nc3nc(-c4ccccc4)cc(=O)n3[nH]2)cc1 | inconclusive: -4.58% |  |
| CCN(CC)c1ccc(/C=N/N=C(c2ccccc2)c2ccccc2)c(O)c1 |  | inconclusive: 2.06 µM [activator, partial curve] |
| O=C1c2ccccc2C(=O)N1CCCCSc1nnc(-c2ccc(OC(F)F)cc2)o1 |  | inconclusive: 18.4 µM [activator, single point] |

Some of the entries so far, with each value named.
CCOC(=O)C=C1CCN(c2ncc(C(F)(F)F)cc2Cl)CC1
  lipid storage change, negative = inhibition: inconclusive: -42.9%
O=C(N/N=C/c1ccc(OCc2ccccc2)cc1)c1ccncc1
  lipid storage change, negative = inhibition: inconclusive: 5.18% [at 9.22 µM]

Exported as tab-separated lines: entries from further up
SMILES	lipid storage change, negative = inhibition	Potency
CCOc1cc(/C=C2\SC(=NC)N(C)C2=O)cc(Cl)c1OC(C)=O		inconclusive: 29.1 µM [activator, single point]
COc1ccc(S(=O)(=O)Cc2ccc(C(=O)N3CCN(c4ccccn4)CC3)o2)cc1		inconclusive: 29.1 µM [activator, single point]

The list continues.

| SMILES | lipid storage change, negative = inhibition | Potency |
| --- | --- | --- |
| O=C(NCCCN1CCN(c2ccccc2F)CC1)Nc1ccccc1[N+](=O)[O-] | inconclusive: -0.95% |  |
| Cn1c(C(=O)N2CCC(C(N)=O)CC2)cc2c(=O)n(C)c3ccccc3c21 | inconclusive: -18% |  |
| O=C(NCC(F)(F)F)N1CCOCC1 | inconclusive: -35.5% |  |
| CC(C)CC(C(=O)NC(=O)NCc1ccccc1)N1C(=O)c2ccccc2C1=O (stereo not drawn) | inconclusive: 23.9% |  |
| COc1ccc(C(=O)N(C)C2CCCCC2)cc1OC1CCN(C(C)C)CC1 | inconclusive: 14.3% |  |
| Cc1[nH]c(=O)[nH]c(=O)c1S(=O)(=O)N1CCCc2ccccc21 | inconclusive: 51.2% |  |
| O=C(NC1CC2CCCC(C1)N2C(=O)Nc1ccccc1F)C1CC1 (stereo not drawn) | inconclusive: -9.45% |  |
| Clc1ccc(-c2cc3ccccc3[nH]2)cc1 |  | inconclusive: 29.1 µM [falling, single point] |
| O=C(COc1ccccc1)Nc1ccc(C(=O)N2CCCC2)cc1 |  | inconclusive: 0.58 µM [activator, single point] |
| CCN(CC(=O)Nc1cc(Cl)ccc1C)C(=O)C1COc2ccccc2O1 (stereo not drawn) | inconclusive: -4.07% |  |
| CC(c1nnc(SCn2nnc3ccccc3c2=O)n1-c1ccc(Cl)cc1)N(C)C (stereo not drawn) | inconclusive: 21.2% |  |
| CCc1ccccc1N1C(=O)C2CC=CCC2C1=O (stereo not drawn) | inconclusive: 93.9% |  |
| CCCCN(C)Cc1cc(=O)oc2ccc3ccccc3c12 | inconclusive: 40.8% |  |
| Cc1cc(=O)nc2c3ccccc3n(CC(=O)NCCC3=CCCCC3)n12 | inconclusive: -26.7% |  |
| CC(C)Oc1ccc(OCCSc2nc3ccccc3n2CC(=O)O)cc1 |  | inconclusive: 0.58 µM [falling, single point] |
| CC1CC(C)CN(c2nc3c(c(=O)n(C)c(=O)n3C)n2CCSc2ncccn2)C1 (stereo not drawn) | inconclusive: 9.45% [at 9.22 µM] |  |
| Cc1ccc(OCc2nc(-c3ccccn3)no2)c(Br)c1 |  | inconclusive: 5.8 µM [activator, single point] |
| Cc1ccc(NS(=O)(=O)c2ccc(C(=O)N3CC(C)CC(C)C3)cc2)cc1 (stereo not drawn) | inconclusive |  |
| COc1ccccc1C(=O)NC(=O)COc1ccc(Cl)cc1Cl | inconclusive: -2.48% |  |
| COc1ccc(S(=O)(=O)N2CCN(C3CCCCCCC3)CC2)cc1 | inconclusive: 49.2% |  |
| Cc1cccc(NC(=O)C(C)Sc2nnc(-c3cccnc3)o2)c1 (stereo not drawn) | inconclusive: -1.42% |  |
| O=C(Nc1cccc(C(F)(F)F)c1)c1cccnn1 |  | inconclusive: 4.61 µM [activator, single point] |
| Cn1c(=O)c2c(nc(N3CCCCCC3)n2CCSc2nc3ccccc3o2)n(C)c1=O |  | inconclusive: 2.31 µM [falling, partial curve] |
| C=CCn1c(NCCO)nc2c1c(=O)n(C)c(=O)n2C | inconclusive: 5.54% |  |
| O=C(Nc1cccc(F)c1)c1c(F)c(F)c(F)c(F)c1F | inactive |  |
| O=C(N/N=C/c1ccccc1)c1cc[n+]([O-])cc1 |  | inconclusive: 29.1 µM [activator, partial curve] |

| SMILES | lipid storage change, negative = inhibition | Potency |
| --- | --- | --- |
| NS(=O)(=O)c1ccc(S(=O)(=O)N(Cc2ccccc2F)CC2CCCO2)cc1 (stereo not drawn) | inconclusive: 11.4% |  |
| CC(=O)c1c(C)[nH]c(C(=O)NCc2ccccc2)c1C | inconclusive: -40.4% |  |
| COC(=O)c1cc(S(=O)(=O)N2CCCCCC2)c[nH]1 | inconclusive: 17.4% |  |
| CCc1ccc(N2C(=O)CC(NNc3nc4ccccc4s3)C2=O)cc1 (stereo not drawn) | inconclusive: -5.01% |  |
| CNc1c(NC(=O)C2CCC(C)CC2)c(=O)oc2ccccc12 (stereo not drawn) |  | inconclusive: 0.116 µM [activator, full curve] |
| CCc1ccc(C(=O)COC(=O)[C@@H](NC(N)=O)[C@@H](C)CC)cc1 | inconclusive: -16.7% |  |
| CCN1CCCC1CNS(=O)(=O)c1cc(Br)cc2c1N(C(=O)C1CC1)CC2 (stereo not drawn) |  | inconclusive: 29.1 µM [activator, single point] |
| c1ccc(NC(c2ccccc2)c2ccncc2)cc1 (stereo not drawn) |  | inconclusive: 11.6 µM [activator, partial curve, poor fit] |
| O=C(Cn1cccc1)N1CCc2ccccc21 | inconclusive: 3.16% [cytotoxic] |  |
| Cc1cc(OC(C)C(=O)Nc2cccnc2)ccc1Cl (stereo not drawn) |  | inconclusive: 1.64 µM [falling, partial curve] |
| COc1cc(OC)cc(C(=O)NC(=S)Nc2ccc3c4c(cccc24)CC3)c1 |  | inconclusive: 5.8 µM [rising, partial curve] |
| COc1ccc(CC(NC(C)=O)C(=O)N2CCN(C(=O)Nc3cccc(F)c3)CC2)cc1OC (stereo not drawn) | inconclusive: 24.6% |  |
| O=C(CSc1ccc(-c2ccc(Br)cc2)nn1)NC1CCCC1 | inconclusive: 7.07% |  |
| O=C(COC(=O)COc1ccc(Cl)cc1)NC1CCCCCC1 | inconclusive: 3.61% |  |
| CCC(NS(=O)(=O)c1cccs1)c1ccc(C)cc1 (stereo not drawn) |  | active: 0.164 µM |
| Cc1occc1C(=O)NN1C(=O)C2C3CCC(O3)C2C1=O (stereo not drawn) |  | inconclusive: 0.411 µM [falling, full curve, poor fit] |
| COc1ccccc1C(=O)NNC(=O)c1ccccc1 | inconclusive: -11.8% |  |
| Cc1nnc(SC(C)C(=O)NC2CCCCC2C)n1N (stereo not drawn) | inconclusive |  |
| COc1cccc(-n2c(SCC(=O)NC(C)(C)C)nnc2-c2ccoc2C)c1 | inconclusive: 16.1% |  |
| CCOC(=O)c1oc2cccc(OC(C)=O)c2c1C | inconclusive: 7.62% |  |
| CC(Sc1nnnn1-c1ccccc1)C(=O)Nc1ccccc1-c1ccccc1 (stereo not drawn) | inconclusive: -55.7% |  |
| Oc1c(Br)cc(Br)c(/C=N/n2c(-c3ccccc3)n[nH]c2=S)c1Br |  | inconclusive: 5.8 µM [activator, partial curve] |
| O=C(CN1CCN(S(=O)(=O)c2ccc(Cl)cc2)CC1)Nc1ccc2c(c1)OCO2 | inconclusive: -39.5% |  |
| CN(C)C(=O)c1cc(F)ccc1Sc1cc(Cl)ccc1Cl | inconclusive: -8.92% |  |
| COC(=O)c1c(NC(C)=O)sc2c1CCN(Cc1ccccc1)C2 |  | inconclusive: 29.1 µM [falling, single point] |
| COc1cc(C2C(C(N)=O)=C(C)Nc3nc(CCCO)nn32)cc(OC)c1OC (stereo not drawn) | inconclusive: 3.44% |  |
